Test results: article doi:10.1101/2025.11.17.688803
These are yes or no findings as the source states them, for the method shown. Binding seen in cells or lysates may run through a third protein. Some entries that bind do so weakly or less than the wild type. For part of these data: Sequences can lack the tags named with a protein.

T1: endogenous TAK1 of mouse embryonic fibroblasts (mouse (endogenous in MEFs)) (UniProt Q62073)
T1 sequence: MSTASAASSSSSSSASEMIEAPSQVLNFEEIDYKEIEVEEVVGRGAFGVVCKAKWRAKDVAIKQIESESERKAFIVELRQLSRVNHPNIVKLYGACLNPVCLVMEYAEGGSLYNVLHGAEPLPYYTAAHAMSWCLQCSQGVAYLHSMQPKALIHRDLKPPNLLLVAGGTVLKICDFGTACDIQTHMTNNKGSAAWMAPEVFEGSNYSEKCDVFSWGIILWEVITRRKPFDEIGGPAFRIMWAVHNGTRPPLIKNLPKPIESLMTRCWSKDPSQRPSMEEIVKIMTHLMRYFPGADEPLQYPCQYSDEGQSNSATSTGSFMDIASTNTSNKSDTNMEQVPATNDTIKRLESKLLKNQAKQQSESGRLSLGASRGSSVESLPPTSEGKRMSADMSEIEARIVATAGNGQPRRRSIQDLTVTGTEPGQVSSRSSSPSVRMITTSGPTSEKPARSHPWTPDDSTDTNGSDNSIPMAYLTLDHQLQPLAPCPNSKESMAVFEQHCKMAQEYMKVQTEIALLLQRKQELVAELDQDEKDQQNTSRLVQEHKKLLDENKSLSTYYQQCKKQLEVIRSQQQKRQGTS

T2: HA-tagged TAK1 (transforming growth factor-beta-activated kinase 1), wild type (UniProt O43318)
T2 sequence: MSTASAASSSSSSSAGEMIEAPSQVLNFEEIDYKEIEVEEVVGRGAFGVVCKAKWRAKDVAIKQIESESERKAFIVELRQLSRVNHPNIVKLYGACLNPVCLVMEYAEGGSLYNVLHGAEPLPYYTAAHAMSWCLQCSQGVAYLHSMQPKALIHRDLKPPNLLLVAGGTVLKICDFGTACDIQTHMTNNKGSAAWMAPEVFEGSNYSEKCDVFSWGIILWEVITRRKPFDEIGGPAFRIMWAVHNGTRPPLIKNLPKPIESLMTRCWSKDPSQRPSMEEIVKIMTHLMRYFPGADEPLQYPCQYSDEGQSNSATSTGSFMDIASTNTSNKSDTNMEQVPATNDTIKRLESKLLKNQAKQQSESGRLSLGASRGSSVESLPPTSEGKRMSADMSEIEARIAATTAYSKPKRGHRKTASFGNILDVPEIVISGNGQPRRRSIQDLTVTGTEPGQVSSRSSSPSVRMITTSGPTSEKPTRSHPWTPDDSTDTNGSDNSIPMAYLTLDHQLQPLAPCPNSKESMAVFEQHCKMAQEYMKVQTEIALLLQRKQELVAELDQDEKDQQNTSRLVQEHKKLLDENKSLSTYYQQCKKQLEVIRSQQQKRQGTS


Key:
[1] = molecular target: T1, endogenous TAK1 of mouse embryonic fibroblasts (mouse (endogenous in MEFs)); assay: co-IP
[2] = molecular target: T2, HA-tagged TAK1 (transforming growth factor-beta-activated kinase 1), wild type; assay: co-IP

| binding [1] | binding [2] | Binder |
| --- | --- | --- |
| binds | – | endogenous TAB2 of mouse embryonic fibroblasts (protein, UniProt Q99K90 1-693) MAQGSHQIDFQVLHDLRQKFPEVPEVVVSRCMLQNNNNLDACCAVLSQESTRYLYGEGDLNFSDESGISGLRNHMTSLNLDLQSQNVYHHGREGSRVNGSRTLTHSVSDGQLHGGQSNNELFQQEPQTAPAQVPQGFNVFGMPSTSGASNSTPHLGFHLGSKGTSNLSQQTPRFNPIMVTLAPNIQTGRSTPTSLHIHGVPPPVLNSPQGNSIYIRPYITTPSGTARQTQQHSGWVSQFNPMNPQQAYQPSQPGPWTTYPASNPLPHTSTQQPNQQGHQTSHVYMPISSPTTPQPPTIHSSGSSQSSAHSQYNIQNISTGPRKNQIEIKLEPPQRNSSSKLRSSGPRTASTSSLVNSQTLNRNQPTVYIAASPPNTDEMISRSQPKVYISANATAGDEQGMRNQPTLFISTNSGPSAASRNMSGQVSMGPAFIHHHPPKSRVLGGNSATSPRVVVTQPNTKYTFKITVSPNKPPAVSPGVVSPTFELTNLLNHPDHYVETENIQHLTDPALAHVDRISEARKLSMGSDDAAYTQALLVHQKARMERLQRELEMQKKKLDKLKSEVNEMENNLTRRRLKRSNSISQIPSLEEMQQLRSCNRQLQIDIDCLTKEIDLFQARGPHFNPSAIHNFYDNIGFVGPVPPKPKDQRSTIKAPKTQDAEDEEGAQWNCTACTFLNHPALIRCEQCEMPRHF |
| binds | – | endogenous TAB3 of mouse embryonic fibroblasts (protein, UniProt Q571K4 1-716) MAQNSPQLDIQVLHDLRQRFPEIPEGVVSQCMLQNNNNLEACCRALSQESSKYLYMEYHSPEDNRMNRNRLLHINLGIHSPSSYHPGDGAHLNGGRTLVHSSSDGHIDPQHTAGKQLICLVQEPHSAPAVVAATPNYNPFFMNEQNRSAATPPSQPPQQPSSMQTGMNPSAMQGPSPPPPPPSYMHIPRYSTNPITVTVSQNLPSGQTVPRALQILPQIPSNLYGSPGSIFIRQTSQSSSGRQTPQNAPWQSSPQGPVPHYSQRPLPVYPHQQNYQPSQYSPKQQQIPQSVYHSPPPSQCPSPFSSPQHQVQPPQLGHPSSHVFMPPSPSTTPPHLYQQGPPSYQKPGSHSVAYLPYTASSLPKGSMKKIEITVEPSQRPGTAITRSPSPISNQPSPRNQHSLYTATTPPSSSPSRGISSQPKPPFSVNPVYITYTQPTGPSCAPSPSPRVIPNPTTVFKITVGRATTENLLNLVDQEERSAAPEPIQPISVIPGSGGEKGNHKYQRSSSSGSDDYAYTQALLLHQRARMERLAKQLKLEKEELERLKAEVNSMEHDLMQRRLRRVSCTTAIPTPEEMTRLRSTNRQLQINVDCTLKEVDLLQSRGNFDPKAINNFYDHIEPGPVVPPKPSKKDSSDSCAIERKARRISVTSKAPVDIHDAQAAAADEHLSICKQSARTQPRDEDYEGAPWNCDSCTFLNHPALNRCEQCEMPRYT |
| – | binds | FLAG-tagged TAB2 (TAK1-binding protein 2) (protein, UniProt Q9NYJ8 1-693) MAQGSHQIDFQVLHDLRQKFPEVPEVVVSRCMLQNNNNLDACCAVLSQESTRYLYGEGDLNFSDDSGISGLRNHMTSLNLDLQSQNIYHHGREGSRMNGSRTLTHSISDGQLQGGQSNSELFQQEPQTAPAQVPQGFNVFGMSSSSGASNSAPHLGFHLGSKGTSSLSQQTPRFNPIMVTLAPNIQTGRNTPTSLHIHGVPPPVLNSPQGNSIYIRPYITTPGGTTRQTQQHSGWVSQFNPMNPQQVYQPSQPGPWTTCPASNPLSHTSSQQPNQQGHQTSHVYMPISSPTTSQPPTIHSSGSSQSSAHSQYNIQNISTGPRKNQIEIKLEPPQRNNSSKLRSSGPRTSSTSSSVNSQTLNRNQPTVYIAASPPNTDELMSRSQPKVYISANAATGDEQVMRNQPTLFISTNSGASAASRNMSGQVSMGPAFIHHHPPKSRAIGNNSATSPRVVVTQPNTKYTFKITVSPNKPPAVSPGVVSPTFELTNLLNHPDHYVETENIQHLTDPTLAHVDRISETRKLSMGSDDAAYTQALLVHQKARMERLQRELEIQKKKLDKLKSEVNEMENNLTRRRLKRSNSISQIPSLEEMQQLRSCNRQLQIDIDCLTKEIDLFQARGPHFNPSAIHNFYDNIGFVGPVPPKPKDQRSIIKTPKTQDTEDDEGAQWNCTACTFLNHPALIRCEQCEMPRHF |
